Our source for the binding values is PMC11155057.

Sequences of proteins named here, by UniProt entry; tags and fusion partners are left off. Residues count along the entry.
UniProt O00206, residues 24-839: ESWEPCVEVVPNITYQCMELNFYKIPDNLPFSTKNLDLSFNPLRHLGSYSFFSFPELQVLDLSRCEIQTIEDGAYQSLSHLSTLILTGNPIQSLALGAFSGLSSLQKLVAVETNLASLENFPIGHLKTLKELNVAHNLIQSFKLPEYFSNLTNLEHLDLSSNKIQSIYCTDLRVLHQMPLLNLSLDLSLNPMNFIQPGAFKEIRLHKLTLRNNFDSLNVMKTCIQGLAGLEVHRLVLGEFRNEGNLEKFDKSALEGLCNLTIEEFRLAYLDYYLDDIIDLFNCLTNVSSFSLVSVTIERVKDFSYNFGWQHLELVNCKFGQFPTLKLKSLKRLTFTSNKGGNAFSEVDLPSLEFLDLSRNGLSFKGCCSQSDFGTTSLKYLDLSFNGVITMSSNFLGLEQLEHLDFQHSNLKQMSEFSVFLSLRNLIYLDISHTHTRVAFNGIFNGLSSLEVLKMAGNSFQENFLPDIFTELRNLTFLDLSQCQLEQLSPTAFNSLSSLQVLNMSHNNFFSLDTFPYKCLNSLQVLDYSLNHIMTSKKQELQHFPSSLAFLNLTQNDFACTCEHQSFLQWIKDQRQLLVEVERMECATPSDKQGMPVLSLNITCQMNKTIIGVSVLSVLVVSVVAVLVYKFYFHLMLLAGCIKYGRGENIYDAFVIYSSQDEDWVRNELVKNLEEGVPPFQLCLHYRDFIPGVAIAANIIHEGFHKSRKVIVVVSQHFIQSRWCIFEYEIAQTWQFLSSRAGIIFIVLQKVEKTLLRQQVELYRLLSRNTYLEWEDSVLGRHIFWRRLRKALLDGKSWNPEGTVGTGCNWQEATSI
UniProt O14543: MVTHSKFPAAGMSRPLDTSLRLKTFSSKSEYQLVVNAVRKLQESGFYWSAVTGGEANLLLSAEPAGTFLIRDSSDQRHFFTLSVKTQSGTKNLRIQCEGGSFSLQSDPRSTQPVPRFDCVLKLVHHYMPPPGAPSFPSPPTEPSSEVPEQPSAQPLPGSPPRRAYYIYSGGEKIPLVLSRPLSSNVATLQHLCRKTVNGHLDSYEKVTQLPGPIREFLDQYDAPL

These are yes or no findings as the source states them, for the method shown. In cells and extracts the contact can be indirect. Some entries that bind do so weakly or less than the wild type.

The test deals with Toll-like receptor 4 (human (endogenous in HK-2)) (UniProt O00206). Put plainly: co-IP; HK-2 cells transfected with pCMV empty vector or pCMV SOCS-3 for 48 h; lysed in IP Lysis/Wash Buffer with protease and phosphatase inhibitors; Pierce Co-Immunoprecipitation Kit; blots with anti-SOCS3 and anti-TLR4; cells under normal glucose (NG) or high glucose (HG), HG reduced the interaction.

Turning to “suppressor of cytokine signaling 3 (from UniProt O14543 1-225)”, the binding entry is “binds”.
